Changes are numbered by the printed parent chain. No constants are given. Whether binding was seen depends on the method and setting. For part of these data: A result given as binding can be weak or reduced; the word gives no strength. Tags and fused reporters may be left off the sequences shown. For part of these data: Binding seen in cells or lysates may run through a third protein.
Assays:
[1] = target: T1, BD-RBR^NF (RBR with N849F fused to the GAL4 DNA binding domain) (Arabidopsis thaliana) (UniProt Q9LKZ3); assay: two-hybrid
T1 sequence: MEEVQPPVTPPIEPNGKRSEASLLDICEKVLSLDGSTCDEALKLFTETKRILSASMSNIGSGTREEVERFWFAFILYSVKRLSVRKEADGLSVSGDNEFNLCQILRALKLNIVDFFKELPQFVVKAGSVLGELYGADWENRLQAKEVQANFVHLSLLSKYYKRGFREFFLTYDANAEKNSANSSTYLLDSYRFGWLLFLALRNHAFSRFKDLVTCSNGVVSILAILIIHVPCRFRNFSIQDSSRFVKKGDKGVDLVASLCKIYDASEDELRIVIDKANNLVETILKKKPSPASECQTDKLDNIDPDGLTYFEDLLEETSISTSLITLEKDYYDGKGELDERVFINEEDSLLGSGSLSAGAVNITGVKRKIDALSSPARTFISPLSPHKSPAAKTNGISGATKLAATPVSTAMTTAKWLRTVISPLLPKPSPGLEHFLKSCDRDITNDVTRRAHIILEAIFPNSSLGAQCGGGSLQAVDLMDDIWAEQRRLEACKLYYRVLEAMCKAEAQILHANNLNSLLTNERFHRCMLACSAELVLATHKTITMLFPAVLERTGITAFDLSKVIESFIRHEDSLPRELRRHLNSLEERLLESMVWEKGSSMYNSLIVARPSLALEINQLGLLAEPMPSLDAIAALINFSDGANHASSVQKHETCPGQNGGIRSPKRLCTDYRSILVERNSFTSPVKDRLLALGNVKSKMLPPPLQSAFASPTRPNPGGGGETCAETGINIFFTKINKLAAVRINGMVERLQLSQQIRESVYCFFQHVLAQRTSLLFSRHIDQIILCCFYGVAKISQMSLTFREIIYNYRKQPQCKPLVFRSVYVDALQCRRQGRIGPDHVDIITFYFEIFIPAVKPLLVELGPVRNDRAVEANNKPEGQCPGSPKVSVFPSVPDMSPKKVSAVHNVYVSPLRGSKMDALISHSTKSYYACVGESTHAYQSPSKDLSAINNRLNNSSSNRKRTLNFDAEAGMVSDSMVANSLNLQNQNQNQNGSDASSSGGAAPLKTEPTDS

By UniProt entry, the sequences of proteins in these tests, tags left out. Where a name states a change or a piece, a line headed by the entry shows the natural chain unless it says otherwise.
UniProt F4J4R5: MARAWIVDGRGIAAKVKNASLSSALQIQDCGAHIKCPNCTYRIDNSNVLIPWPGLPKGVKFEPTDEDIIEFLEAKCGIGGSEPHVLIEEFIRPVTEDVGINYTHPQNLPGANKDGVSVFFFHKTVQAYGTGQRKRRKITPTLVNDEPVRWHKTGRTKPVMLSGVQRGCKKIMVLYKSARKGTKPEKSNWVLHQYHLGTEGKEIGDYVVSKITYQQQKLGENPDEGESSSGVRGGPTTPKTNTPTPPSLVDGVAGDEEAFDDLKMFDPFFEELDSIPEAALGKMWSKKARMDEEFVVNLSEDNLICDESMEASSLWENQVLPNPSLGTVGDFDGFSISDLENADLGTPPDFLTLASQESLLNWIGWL

[2] = target: T2, BD-RBR (RETINOBLASTOMA-RELATED1 protein fused to the GAL4 DNA binding domain) (Arabidopsis thaliana) (UniProt Q9LKZ3); assay: two-hybrid
T2 sequence: T1 sequence with F849N

[3] = target: T3, RBR-NLuc in stable transgenic Arabidopsis seedlings (Arabidopsis thaliana) (UniProt Q9LKZ3); assay: split reporter
T3 sequence: T1 sequence with F849N

[4] = target: T4, RBR, split-luciferase fusion expressed in N. benthamiana leaves (Arabidopsis thaliana) (UniProt Q9LKZ3); assay: split reporter
T4 sequence: T1 sequence with F849N

| binding [1] | binding [2] | binding [3] | binding [4] | Substance |
| --- | --- | --- | --- | --- |
| no binding | binds | – | – | AD-NAC044 (NAC044 fused to the GAL4 activation domain) (from UniProt F4J4R5) |
| no binding | no binding | – | – | AD-NAC044^GCG (LXCXE-to-GXCXG-mutated NAC044 fused to the GAL4 activation domain) (Arabidopsis thaliana) |
| – | – | binds | – | CLuc-NAC044 in stable transgenic Arabidopsis seedlings |
| – | – | – | binds | NAC044, split-luciferase fusion expressed in N. benthamiana leaves (Arabidopsis thaliana) |
